Test results: the supplement of paper PMC8291772
± gives the standard error. The list shows a part of the results. Single values are uncertain here, since repeats match poorly.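 The library contained all possible DNA sequences one to five nucleotides in length. General extension ability was assessed against a threshold of the blocked-version mean plus three standard deviations, and the probe detects only chains extended by seven or more dT.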

Sequences of proteins named here, by UniProt entry; tags and fusion partners are left off. A change or cut given only in a name is not applied to a line headed by its entry.
UniProt P06526: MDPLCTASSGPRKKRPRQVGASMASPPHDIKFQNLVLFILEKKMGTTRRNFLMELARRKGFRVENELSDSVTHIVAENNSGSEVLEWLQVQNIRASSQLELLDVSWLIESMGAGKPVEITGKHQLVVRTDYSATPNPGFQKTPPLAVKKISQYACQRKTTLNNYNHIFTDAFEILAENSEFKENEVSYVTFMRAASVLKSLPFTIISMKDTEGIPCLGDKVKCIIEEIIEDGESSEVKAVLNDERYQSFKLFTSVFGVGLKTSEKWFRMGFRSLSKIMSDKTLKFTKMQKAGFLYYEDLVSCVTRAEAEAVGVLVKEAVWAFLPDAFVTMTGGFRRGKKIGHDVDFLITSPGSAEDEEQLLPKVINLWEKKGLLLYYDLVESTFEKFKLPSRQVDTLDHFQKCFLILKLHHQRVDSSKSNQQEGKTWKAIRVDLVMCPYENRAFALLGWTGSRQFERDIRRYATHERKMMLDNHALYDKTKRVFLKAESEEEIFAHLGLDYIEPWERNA

These sequences were tested against terminal deoxynucleotidyl transferase (calf thymus) (UniProt P06526) (assay: TdT poly-dT extension signal (Cy3 hybridisation fluorescence, uncapped minus capped) (fluorescence a.u.); higher = more efficient initiation of TdT extension). Conditions: initiator chemistry: D-DNA, free 3'-OH (5'-tethered via HEG linker).
Description: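 All mono- to pentamer initiator sequences were made by photolithographic in situ synthesis (reverse 5'->3' direction) on glass on a single hexaethylene glycol linker. Each was made in uncapped and DMTr-dT-capped versions, about 11 replicate features each. Arrays were extended with calf thymus TdT (0.2 U/uL) and 100 uM dTTP in TdT buffer with 0.25 mM CoCl2 for 120 min at 37 C, then hybridised with an rA18-Cy3 probe at 4 C and scanned at 532 nm. The value is the mean uncapped signal minus the mean capped signal of the same sequence.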

Sequence | TdT poly-dT extension signal
GGTGC | 3630 ± 300
CCTTC | 2820 ± 320
CGCTA | 3950 ± 190
CGGCC | 3460 ± 230
ACACC | 2860 ± 240
GTGT | 3870 ± 260
ACCAC | 3510 ± 300
AATCG | 3390 ± 390
GTGAG | 4230 ± 490
GTTCA | 3030 ± 490
TCGCG | 3870 ± 380
CCAGC | 3390 ± 370
GAAAT | 3600 ± 410
TCAGG | 4350 ± 360
GCTTC | 3040 ± 330
GTGTA | 4350 ± 630
AAGTC | 3540 ± 250
CATGA | 4460 ± 560
AACGG | 4190 ± 240
CATTC | 3120 ± 260
TAACC | 2360 ± 280
GGCGC | 3380 ± 440
AGCCC | 2510 ± 400
CTAAT | 3650 ± 370

Sequence | TdT poly-dT extension signal
GGGAC | 3520 ± 440
GTCAA | 3830 ± 480
CGTA | 2780 ± 380
CGCAA | 4650 ± 480
TCCTA | 2760 ± 330
AACAA | 3590 ± 390
TTCCA | 3120 ± 380
GAATA | 4670 ± 610
AAAT | 3430 ± 400
TGTGG | 4160 ± 600
CCAC | 3540 ± 410
TCAG | 3220 ± 470
CATAG | 3670 ± 370
GTGGG | 4940 ± 490
CGCCG | 3480 ± 400
CTCCG | 3460 ± 420
CGGTA | 3400 ± 430
CTGCG | 4010 ± 190
ACAGC | 3240 ± 320
GTTCG | 3860 ± 520
GCCCT | 3870 ± 270
ATTGC | 3490 ± 190
TACAG | 3770 ± 320
ATGAG | 3860 ± 530

Sequence | TdT poly-dT extension signal
CTCCA | 3250 ± 380
TGACG | 4130 ± 510
AAGTA | 3340 ± 370
AAGGC | 3250 ± 560
TCCCA | 3700 ± 310
CACTG | 3930 ± 570
TGTGC | 3540 ± 260
ATGCC | 2100 ± 310
AGTAC | 3990 ± 660
CCGGT | 3820 ± 420
GAGTG | 3460 ± 400
ATTGT | 4320 ± 440
ACCGC | 2770 ± 390
GTTTC | 3590 ± 110
CTTTA | 3620 ± 300
TAGGT | 3470 ± 360
GTGAC | 3330 ± 350
TGCGC | 3080 ± 370
GACCA | 3330 ± 330
TCCAG | 3640 ± 440
CGAG | 3970 ± 210
GCTGT | 3760 ± 350
TTCGG | 3680 ± 460
GTAG | 3450 ± 290

Sequence | TdT poly-dT extension signal
AGAGC | 3080 ± 350
CAAAT | 3890 ± 480
TTGGC | 3370 ± 520
ACCAT | 3670 ± 330
GCATC | 3680 ± 410
CTATT | 3550 ± 540
TTATA | 4100 ± 450
TCCGC | 3840 ± 310
CATAC | 2610 ± 250
CTCGT | 4000 ± 370
GACCG | 3570 ± 370
TAAAA | 4580 ± 490
ACCTA | 3840 ± 340
GAGGT | 4350 ± 500
AACAT | 3570 ± 360
GCAT | 3540 ± 280
AATAA | 4630 ± 360
TTGTT | 4600 ± 230
CGGAA | 4680 ± 300
TCGTC | 3390 ± 350
CAGGG | 4370 ± 500
ATAAG | 3170 ± 540
AAAG | 4350 ± 270
TCGG | 4020 ± 670

Sequence | TdT poly-dT extension signal
GCTAA | 3970 ± 660
CCAGG | 4360 ± 760
TGGGG | 4470 ± 820
AGTCG | 3490 ± 290
TCCTT | 2950 ± 330
CGCTT | 3560 ± 380
TATTC | 3180 ± 400
GAGGA | 4570 ± 460
GCAAG | 4850 ± 320
TTCAT | 4820 ± 450
CAAAG | 4150 ± 380
AGTGC | 3130 ± 310
CACAA | 3750 ± 500
GCTGG | 3290 ± 450
CCCC | 3020 ± 370
ACCA | 3990 ± 250
CTTAC | 3300 ± 220
GGTCG | 3560 ± 360
ACAA | 3390 ± 380
TAATC | 3100 ± 240
GAGGG | 4130 ± 590
CTATC | 3930 ± 510
TGTAA | 4160 ± 370
TCCC | 2840 ± 270

Sequence | TdT poly-dT extension signal
CCATA | 4340 ± 220
CCCAA | 3910 ± 580
CTACA | 2330 ± 380
CGCA | 3430 ± 300
CTTGC | 3550 ± 340
AATCA | 3600 ± 340
TTCCC | 2390 ± 330
TAGTC | 3390 ± 410
CCGTG | 3590 ± 370
AGCCT | 3000 ± 370
TCCGG | 5040 ± 810
CCTCG | 4110 ± 540
TGCG | 3520 ± 440
TAGTA | 2940 ± 390
GGCTA | 3760 ± 500
ATCGA | 3460 ± 440
GTCAG | 4400 ± 740
ATACA | 4140 ± 330
ACCAA | 4100 ± 330
AACGT | 3780 ± 380
ACTCA | 3770 ± 360
ATCAC | 3350 ± 320
GCCCC | 3180 ± 240
TAACT | 3000 ± 390

Sequence | TdT poly-dT extension signal
CCGC | 4000 ± 290
TCCAA | 3460 ± 450
GACCT | 3490 ± 290
AAGCG | 3720 ± 340
TTTGG | 3580 ± 320
CCAGA | 3770 ± 410
CACGA | 4030 ± 560
AGAG | 3660 ± 370
ATGAT | 3710 ± 330
AGGAT | 2910 ± 580
TTTAA | 4100 ± 560
GACGC | 3440 ± 440
GAGTA | 3560 ± 600
CACCT | 3470 ± 230
ATACT | 3470 ± 200
TGGTC | 3510 ± 380
GACAA | 4470 ± 460
CAAGT | 4020 ± 350
CTCTC | 3540 ± 300
AAGA | 3630 ± 450
GATGC | 2610 ± 340
GCTCT | 3480 ± 300
ACCG | 3850 ± 310
ACAC | 2900 ± 290

Taken from the results shown for reference:
Sequence | TdT poly-dT extension signal
AATCG | 3390 ± 390
GTGAG | 4230 ± 490
GTTCA | 3030 ± 490
TCGCG | 3870 ± 380
CCAGC | 3390 ± 370

(listing goes on)

Sequence | TdT poly-dT extension signal
CCAT | 3880 ± 700
CAGCA | 4140 ± 260
CAAAA | 4990 ± 630
TTGAA | 5100 ± 620
TCGGT | 4090 ± 410
CAAT | 4590 ± 370
GGTTT | 3860 ± 420
CGTCT | 3720 ± 240
CTGCC | 3030 ± 320
GACA | 3700 ± 450
AATTC | 3070 ± 320
ACTTT | 4990 ± 660
CCTGC | 3670 ± 400
GGAGT | 3140 ± 420
CTCTT | 3710 ± 230
CCAAG | 4010 ± 380
AAGTT | 3550 ± 360
CTGGT | 3000 ± 490
GCGTT | 3810 ± 370
GACAT | 4020 ± 430
GTATC | 2420 ± 400
AAGGG | 4390 ± 370
CTCGC | 2880 ± 390
TATG | 3080 ± 440

Sequence | TdT poly-dT extension signal
AGTTC | 2580 ± 360
CGTAA | 4290 ± 300
CCTAG | 3240 ± 360
TCTGT | 3170 ± 400
GCTTT | 3790 ± 470
CGATA | 3880 ± 350
AGAGG | 4420 ± 430
CAGAT | 2830 ± 420
GATC | 2210 ± 330
AGTCA | 3040 ± 560
TTAAC | 2780 ± 280
AATCT | 3760 ± 120
CAGAA | 3740 ± 400
CTTCG | 2980 ± 280
TCTTG | 3360 ± 450
TCGAA | 4240 ± 400
CGACT | 3500 ± 330
AGGCG | 4410 ± 520
GTTCT | 3710 ± 180
ACCCT | 2970 ± 350
TCGCA | 3940 ± 450
GGTT | 4210 ± 270
ATGA | 3570 ± 410

Five entries from above, in CSV form:
Sequence,TdT poly-dT extension signal
TGGGG,4470 ± 820
AGTCG,3490 ± 290
TCCTT,2950 ± 330
CGCTT,3560 ± 380
TATTC,3180 ± 400
